PubChem BioAssay AID248 (DTP/NCI, 2004)
The list does not hold the whole screen: it gathers tests that were run many times, whatever their T/C, doses with no T/C, and many T/C values between a quarter and a half above the control. Other doses and runs of a compound stand elsewhere. T/C is the treated group as % of the vehicle group. Some doses have a count of surviving animals in place of a T/C: the source holds a T/C of zero for them, seemingly a mark for toxic or unscored doses. Some doses without a T/C left all or most animals alive at the check, yet need not have been tolerated: the source hardly ever lists a survival T/C far under the control, and the zero likely stands for such cases as well. Survivors were counted at the toxicity check, usually on the fifth day, unless a day is given; later deaths do not show. Schedules are NCI's codes, read here as Q, the interval in days (D) or hours (H), X, the number of doses. Some doses were run more than once; their values stand side by side, smallest first. Some schedules carry Z or #; the key to these is not given. For survival time, this PubChem deposit counts one and a half times the control or more as active, and values a quarter to a half above the control carry no call in these data; other NCI protocols may use other cut-offs.

System: L1210 leukemia ip in BDF1 mice, survival T/C
Assay: NCI In Vivo Anticancer Drug Screen. Data for tumor model L1210 Leukemia (intraperitoneal) in B6D2F1 (BDF1) mice
Settings: T/C endpoint: mean survival time, higher T/C = longer survival
[1] = dose: 200.0 mg/kg/injection, schedule: Q01DX009 (ip), vehicle: Klucel (hydroxypropylcellulose) (HPC)
[2] = dose: 400.0 mg/kg/injection, schedule: Q04DX003 (ip), vehicle: Klucel (hydroxypropylcellulose) (HPC)
[3] = dose: 400.0 mg/kg/injection, schedule: Q01DX009 (ip), vehicle: saline
[4] = dose: 400.0 mg/kg/injection, schedule: Q01DX009 (ip), vehicle: Klucel (hydroxypropylcellulose) (HPC)
[5] = dose: 100.0 mg/kg/injection, schedule: Q01DX009 (ip), vehicle: saline
[6] = dose: 200.0 mg/kg/injection, schedule: Q01DX009 (ip), vehicle: saline
[7] = dose: 400.0 mg/kg/injection, schedule: Q01DX001 (ip), vehicle: saline
[8] = dose: 100.0 mg/kg/injection, schedule: Q04DX003 (ip), vehicle: saline
[9] = dose: 200.0 mg/kg/injection, schedule: Q04DX003 (ip), vehicle: saline
[10] = dose: 400.0 mg/kg/injection, schedule: Q04DX003 (ip), vehicle: saline

## Nc1cc(Cl)c2[nH]cnc2n1
dose: 14.0 mg/kg/injection, schedule: Q01DX009 (ip), vehicle: Klucel (hydroxypropylcellulose) (HPC)
  T/C: 125 % of control
dose: 21.0 mg/kg/injection, schedule: Q01DX009 (ip), vehicle: Klucel (hydroxypropylcellulose) (HPC)
  T/C: 135 % of control
dose: 33.0 mg/kg/injection, schedule: Q01DX009 (ip), vehicle: Klucel (hydroxypropylcellulose) (HPC)
  T/C: 148 % of control
dose: 40.0 mg/kg/injection, schedule: Q04DX003 (ip), vehicle: Klucel (hydroxypropylcellulose) (HPC)
  T/C: 125 % of control
dose: 60.0 mg/kg/injection, schedule: Q04DX003 (ip), vehicle: Klucel (hydroxypropylcellulose) (HPC)
  T/C: 129 % of control
dose: 90.0 mg/kg/injection, schedule: Q04DX003 (ip), vehicle: Klucel (hydroxypropylcellulose) (HPC)
  T/C: 132 % of control
dose: 100.0 mg/kg/injection, schedule: Q04DX003 (ip), vehicle: Klucel (hydroxypropylcellulose) (HPC)
  T/C: 130 % of control
dose: 100.0 mg/kg/injection, schedule: Q04DX003 (ip), vehicle: water
  T/C: 127 % of control
dose: 133.0 mg/kg/injection, schedule: Q04DX003 (ip), vehicle: Klucel (hydroxypropylcellulose) (HPC)
  T/C: 137 % of control
dose: 200.0 mg/kg/injection, schedule: Q01DX001 (ip), vehicle: Klucel (hydroxypropylcellulose) (HPC)
  T/C: 126 % of control
[1]
  survivor count: 6 of 6
dose: 200.0 mg/kg/injection, schedule: Q04DX003 (ip), vehicle: Klucel (hydroxypropylcellulose) (HPC), evaluated on day 20
  T/C: 149 % of control
dose: 200.0 mg/kg/injection, schedule: Q04DX003 (ip), vehicle: Klucel (hydroxypropylcellulose) (HPC), evaluated on day 30
  T/C: 149 % of control
dose: 200.0 mg/kg/injection, schedule: Q04DX003 (ip), vehicle: water
  T/C: 145 % of control
dose: 300.0 mg/kg/injection, schedule: Q04DX003 (ip), vehicle: Klucel (hydroxypropylcellulose) (HPC)
  T/C: 137 % of control
dose: 400.0 mg/kg/injection, schedule: Q01DX001 (ip), vehicle: Klucel (hydroxypropylcellulose) (HPC)
  survivor count: 1 of 6
[2]
  survivor count: 1 of 6
dose: 400.0 mg/kg/injection, schedule: Q04DX003 (ip), vehicle: water
  survivor count: 2 of 6

## O=C(C=C(C(F)(F)F)C(F)(F)F)c1ccccc1
[3]
  survivor count: 2 of 6

## NC(N)=N/N=C(\CBr)c1ccc([N+](=O)[O-])cc1
dose: 120.0 mg/kg/injection, schedule: Q01DX Z (ip), vehicle: carboxymethylcellulose (CMC)
  survivor count: 0 of 6
dose: 240.0 mg/kg/injection, schedule: Q01DX Z (ip), vehicle: carboxymethylcellulose (CMC)
  survivor count: 0 of 6
dose: 480.0 mg/kg/injection, schedule: Q01DX Z (ip), vehicle: carboxymethylcellulose (CMC)
  survivor count: 0 of 6

## O=c1ccc2ccccc2o1
dose: 250.0 mg/kg/injection, schedule: Q01DX Z (ip), vehicle: carboxymethylcellulose (CMC)
  survivor count: 1 of 6
dose: 375.0 mg/kg/injection, schedule: Q01DX Z (ip), vehicle: carboxymethylcellulose (CMC)
  survivor count: 0 of 6
dose: 400.0 mg/kg/injection, schedule: Q01DX001 (ip), vehicle: other
  survivor count: 2 of 4

## CCCCCC(/C=N\Nc1nnc(N/N=C\C(=C\c2ccccc2)CCCCC)c2ccccc12)=C/c1ccccc1
dose: 133.0 mg/kg/injection, schedule: Q01DX001 (ip), vehicle: carboxymethylcellulose (CMC)
  survivor count: 1 of 4
dose: 200.0 mg/kg/injection, schedule: Q01DX001 (ip), vehicle: carboxymethylcellulose (CMC)
  T/C: 129 % of control
dose: 400.0 mg/kg/injection, schedule: Q01DX001 (ip), vehicle: carboxymethylcellulose (CMC)
  T/C: 125 % of control

## CS(=O)c1cc2c(cc1[N+](=O)[O-])C(=O)c1ccccc1-2 (centres undefined)
dose: 80.0 mg/kg/injection, schedule: Q01DX009 (ip), vehicle: Klucel (hydroxypropylcellulose) (HPC)
  survivor count: 2 of 6
[1]
  survivor count: 0 of 6
dose: 200.0 mg/kg/injection, schedule: Q04DX003 (ip), vehicle: Klucel (hydroxypropylcellulose) (HPC)
  survivor count: 2 of 6
[4]
  survivor count: 0 of 6
[2]
  survivor count: 0 of 6

## O=C1C=C/C(=N/c2ccc(O)o2)c2ccccc21
dose: 75.0 mg/kg/injection, schedule: Q01DX001 (ip), vehicle: saline
  survivor count: 3 of 6
dose: 300.0 mg/kg/injection, schedule: Q01DX001 (ip), vehicle: saline
  survivor count: 1 of 6

## CN(C)Cc1ncccc1OC(=O)N(c1ccccc1)c1ccccc1
[5]
  survivor count: 0 of 6
[6]
  survivor count: 0 of 6
[3]
  survivor count: 0 of 6

## OCCNC(c1ccc(Cl)cc1)C(O)c1ccc(Cl)cc1 (centres undefined)
[7]
  survivor count: 0 of 4

## CC1OC(O[C@H]2C[C@@H](O)[C@]3(CO)[C@H]4[C@H](O)C[C@]5(C)[C@@H](C6=CC(=O)OC6)CC[C@]5(O)[C@@H]4CC[C@]3(O)C2)C(O)C(O)C1O (some centres undefined)
dose: 5.0 mg/kg/injection, schedule: Q01DX009 (ip), vehicle: saline
  survivor count: 6 of 10
dose: 10.0 mg/kg/injection, schedule: Q01DX009 (ip), vehicle: saline
  survivor count: 6 of 10
dose: 20.0 mg/kg/injection, schedule: Q01DX009 (ip), vehicle: saline
  survivor count: 1 of 10
dose: 50.0 mg/kg/injection, schedule: Q04DX003 (ip), vehicle: saline
  survivor count: 2 of 6
[8]
  survivor count: 0 of 6
[9]
  survivor count: 0 of 6
[10]
  survivor count: 0 of 6

## Nc1nc(=O)[nH]c(N)c1N
[7]
  survivor count: 3 of 6

## CC(=O)N(CCN(C)C)Cc1ccccc1
[7]
  survivor count: 0 of 4

## N#CCCCCCCCCCC#N
[1]
  survivor count: 0 of 6
[4]
  survivor count: 0 of 6

## CC[P+](CC)(CC)CCCCI
[5]
  survivor count: 0 of 6
[8]
  survivor count: 1 of 6 and 3 of 6
[6]
  survivor count: 0 of 6
[9]
  survivor count: 0 of 6
[10]
  survivor count: 0 of 6

## Cln1nnc2ccccc21
dose: 400.0 mg/kg/injection, schedule: Q04DX002 (ip), vehicle: other
  survivor count: 1 of 3

## S=C(c1ccco1)N1CCOCC1
dose: 300.0 mg/kg/injection, schedule: Q01DX009 (ip), vehicle: saline with Tween-80
  survivor count: 4 of 6

## N#Cc1ccccc1.N#Cc1ccccc1.[Cl][Pd][Cl]
[2]
  survivor count: 6 of 6

## Cc1c(C(=O)CCl)c(=O)n(-c2ccccc2)n1C
[1]
  survivor count: 3 of 6
[2]
  survivor count: 1 of 6

## CC(=O)OC1CCC2(C)C(CCC3C4CC=C(C(C)=O)C4(C)OC(=O)CC32)C1 (centres undefined)
dose: 75.0 mg/kg/injection, schedule: Q01DX009 (ip), vehicle: carboxymethylcellulose (CMC)
  survivor count: 6 of 6
dose: 150.0 mg/kg/injection, schedule: Q01DX009 (ip), vehicle: carboxymethylcellulose (CMC)
  survivor count: 2 of 6
dose: 300.0 mg/kg/injection, schedule: Q01DX009 (ip), vehicle: carboxymethylcellulose (CMC)
  survivor count: 1 of 6

## CC(C(=O)c1ccccc1)C(=O)C(F)(F)F (centres undefined)
dose: 500.0 mg/kg/injection, schedule: Q01DX Z (ip), vehicle: methylcellulose (MC)
  survivor count: 0 of 6

## O=S1(=O)C=C(Cl)C2C3C=CC(C3)C21 (centres undefined)
dose: 2.5 mg/kg/injection, schedule: Q01DX009 (ip), vehicle: acetone
  survivor count: 6 of 6
dose: 10.0 mg/kg/injection, schedule: Q04DX003 (ip), vehicle: acetone
  survivor count: 5 of 6
dose: 20.0 mg/kg/injection, schedule: Q01DX001 (ip), vehicle: acetone
  survivor count: 0 of 6
dose: 40.0 mg/kg/injection, schedule: Q01DX001 (ip), vehicle: acetone
  survivor count: 0 of 6

## CCCCCCCN=C(N)c1ccc(C(=O)OCc2ccccc2)cc1
[7]
  survivor count: 1 of 6
